Test [1] concerns the target GFP-BAP1 Δ671–710 (UniProt Q92560). Kind of test: affinity purification with mass spectrometry; GFP-Trap agarose beads, 20 min at 4°C with ethidium bromide, washes in C300 buffer; nuclear extracts of HeLa FRT ΔBAP1 (clone 4D2) lines expressing GFP-BAP1 full-length, 2–670 or Δ671–710; GFP or mock immunoprecipitation.
The target in test [2] is (N)GFP-FLAG-BAP1 fusion protein (BRCA1-associated protein 1, full-length) (UniProt Q92560). The description is as above.
Test [3] has the same target. Kind of test: affinity purification with mass spectrometry; GFP-Trap agarose beads, 20 min at 4°C with ethidium bromide, washes in C300 buffer; nuclear extract of HeLa FRT cells (endogenous BAP1 present) induced with doxycycline to express GFP-BAP1; against mock precipitation.
The target of test [4] is GFP-BAP1 Δ671–710 (UniProt Q92560). Kind of test: affinity purification with mass spectrometry; GFP-Trap agarose beads, 20 min at 4°C with ethidium bromide, washes in C300 buffer; cytoplasmic extracts of HeLa FRT ΔBAP1 (clone 4D2) lines expressing GFP-BAP1 full-length, 2–670 or Δ671–710; GFP or mock immunoprecipitation.
For test [5], the target named is (N)GFP-FLAG-BAP1 fusion protein (BRCA1-associated protein 1, full-length) (UniProt Q92560). The test is described as above.
For test [6] the target is unchanged. Kind of test: affinity purification with mass spectrometry; GFP-Trap agarose beads, 20 min at 4°C with ethidium bromide, washes in C300 buffer; cytoplasmic extract of HeLa FRT cells (endogenous BAP1 present) induced with doxycycline to express GFP-BAP1; against mock precipitation.

By UniProt entry, the sequences of proteins in these tests, tags left out. Where a name states a change or a piece, a line headed by the entry shows the natural chain unless it says otherwise. Chains listed by the source or under a name are the forms on record and can include a tag or linker.
UniProt Q92560: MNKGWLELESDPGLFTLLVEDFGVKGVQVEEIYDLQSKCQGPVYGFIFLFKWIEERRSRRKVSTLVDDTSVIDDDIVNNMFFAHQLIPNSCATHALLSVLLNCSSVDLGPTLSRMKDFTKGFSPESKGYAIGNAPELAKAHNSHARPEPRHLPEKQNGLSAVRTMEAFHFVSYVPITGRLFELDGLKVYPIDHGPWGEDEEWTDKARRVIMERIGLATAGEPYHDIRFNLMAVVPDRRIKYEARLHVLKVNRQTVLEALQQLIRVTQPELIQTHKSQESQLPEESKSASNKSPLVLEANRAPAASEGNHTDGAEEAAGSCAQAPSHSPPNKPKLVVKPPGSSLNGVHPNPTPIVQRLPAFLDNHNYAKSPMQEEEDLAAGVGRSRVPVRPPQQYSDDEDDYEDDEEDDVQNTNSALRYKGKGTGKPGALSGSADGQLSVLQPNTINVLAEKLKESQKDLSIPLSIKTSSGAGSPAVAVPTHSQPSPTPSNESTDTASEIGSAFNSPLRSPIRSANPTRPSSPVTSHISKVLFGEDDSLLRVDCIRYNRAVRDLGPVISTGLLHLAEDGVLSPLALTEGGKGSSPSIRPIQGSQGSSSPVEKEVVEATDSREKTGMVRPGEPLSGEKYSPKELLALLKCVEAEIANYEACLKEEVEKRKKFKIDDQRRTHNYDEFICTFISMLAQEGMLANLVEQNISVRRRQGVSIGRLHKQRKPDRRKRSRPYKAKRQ
GFP-BAP1 Δ671–710 (Q92560, form named): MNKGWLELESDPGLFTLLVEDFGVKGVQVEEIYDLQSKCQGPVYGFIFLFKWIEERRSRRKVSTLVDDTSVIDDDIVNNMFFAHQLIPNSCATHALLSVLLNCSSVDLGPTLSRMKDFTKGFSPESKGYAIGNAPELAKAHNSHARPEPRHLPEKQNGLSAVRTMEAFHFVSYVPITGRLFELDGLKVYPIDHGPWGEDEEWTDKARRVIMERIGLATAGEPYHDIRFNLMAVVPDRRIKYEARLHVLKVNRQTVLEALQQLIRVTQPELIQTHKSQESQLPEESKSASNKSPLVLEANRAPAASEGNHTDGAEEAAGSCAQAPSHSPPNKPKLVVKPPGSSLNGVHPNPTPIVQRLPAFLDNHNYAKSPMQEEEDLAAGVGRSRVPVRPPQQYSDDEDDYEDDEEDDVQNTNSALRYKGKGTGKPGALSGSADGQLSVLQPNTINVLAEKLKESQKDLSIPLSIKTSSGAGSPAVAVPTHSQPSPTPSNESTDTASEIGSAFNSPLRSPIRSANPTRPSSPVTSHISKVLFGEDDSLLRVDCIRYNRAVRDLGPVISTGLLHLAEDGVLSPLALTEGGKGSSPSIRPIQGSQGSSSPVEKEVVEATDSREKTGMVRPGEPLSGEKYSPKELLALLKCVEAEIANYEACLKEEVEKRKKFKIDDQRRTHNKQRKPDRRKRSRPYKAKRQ

No constants are given. Whether binding was seen depends on the method and setting. Binding seen in cells or lysates may run through a third protein. A yes stands for co-enrichment or nearness to the bait. Other partners may have been found. For some assays here: No binding means not detected with the bait.

B1: COPB2 (protein, UniProt P35606 1-906)
chain: MPLRLDIKRKLTARSDRVKSVDLHPTEPWMLASLYNGSVCVWNHETQTLVKTFEVCDLPVRAAKFVARKNWVVTGADDMQIRVFNYNTLERVHMFEAHSDYIRCIAVHPTQPFILTSSDDMLIKLWDWDKKWSCSQVFEGHTHYVMQIVINPKDNNQFASASLDRTIKVWQLGSSSPNFTLEGHEKGVNCIDYYSGGDKPYLISGADDRLVKIWDYQNKTCVQTLEGHAQNVSCASFHPELPIIITGSEDGTVRIWHSSTYRLESTLNYGMERVWCVASLRGSNNVALGYDEGSIIVKLGREEPAMSMDANGKIIWAKHSEVQQANLKAMGDAEIKDGERLPLAVKDMGSCEIYPQTIQHNPNGRFVVVCGDGEYIIYTAMALRNKSFGSAQEFAWAHDSSEYAIRESNSIVKIFKNFKEKKSFKPDFGAESIYGGFLLGVRSVNGLAFYDWDNTELIRRIEIQPKHIFWSDSGELVCIATEESFFILKYLSEKVLAAQETHEGVTEDGIEDAFEVLGEIQEIVKTGLWVGDCFIYTSSVNRLNYYVGGEIVTIAHLDRTMYLLGYIPKDNRLYLGDKELNIISYSLLVSVLEYQTAVMRRDFSMADKVLPTIPKEQRTRVAHFLEKQGFKQQALTVSTDPEHRFELALQLGELKIAYQLAVEAESEQKWKQLAELAISKCQFGLAQECLHHAQDYGGLLLLATASGNANMVNKLAEGAERDGKNNVAFMSYFLQGKVDACLELLIRTGRLPEAAFLARTYLPSQVSRVVKLWRENLSKVNQKAAESLADPTEYENLFPGLKEAFVVEEWVKETHADLWPAKQYPLVTPNEERNVMEEGKDFQPSRSTAQQELDGKPASPTPVIVASHTANKEEKSLLELEVDLDNLELEDIDTTDINLDEDILDD
For B1, the binding result with GFP-BAP1 Δ671–710 [1] is listed as “no binding (only in the nuclear extract)”; in test [2], “no binding (only in the nuclear extract)”; in test [3], “no binding (only in the nuclear extract)”; with GFP-BAP1 Δ671–710 [4], “binds”; in test [5], “binds”.

B2: UBE2O (enzyme, UniProt Q9C0C9 1-1292)
chain: MADPAAPTPAAPAPAQAPAPAPEAVPAPAAAPVPAPAPASDSASGPSSDSGPEAGSQRLLFSHDLVSGRYRGSVHFGLVRLIHGEDSDSEGEEEGRGSSGCSEAGGAGHEEGRASPLRRGYVRVQWYPEGVKQHVKETKLKLEDRSVVPRDVVRHMRSTDSQCGTVIDVNIDCAVKLIGTNCIIYPVNSKDLQHIWPFMYGDYIAYDCWLGKVYDLKNQIILKLSNGARCSMNTEDGAKLYDVCPHVSDSGLFFDDSYGFYPGQVLIGPAKIFSSVQWLSGVKPVLSTKSKFRVVVEEVQVVELKVTWITKSFCPGGTDSVSPPPSVITQENLGRVKRLGCFDHAQRQLGERCLYVFPAKVEPAKIAWECPEKNCAQGEGSMAKKVKRLLKKQVVRIMSCSPDTQCSRDHSMEDPDKKGESKTKSEAESASPEETPDGSASPVEMQDEGAEEPHEAGEQLPPFLLKEGRDDRLHSAEQDADDEAADDTDDTSSVTSSASSTTSSQSGSGTSRKKSIPLSIKNLKRKHKRKKNKITRDFKPGDRVAVEVVTTMTSADVMWQDGSVECNIRSNDLFPVHHLDNNEFCPGDFVVDKRVQSCPDPAVYGVVQSGDHIGRTCMVKWFKLRPSGDDVELIGEEEDVSVYDIADHPDFRFRTTDIVIRIGNTEDGAPHKEDEPSVGQVARVDVSSKVEVVWADNSKTIILPQHLYNIESEIEESDYDSVEGSTSGASSDEWEDDSDSWETDNGLVEDEHPKIEEPPIPPLEQPVAPEDKGVVISEEAATAAVQGAVAMAAPMAGLMEKAGKDGPPKSFRELKEAIKILESLKNMTVEQLLTGSPTSPTVEPEKPTREKKFLDDIKKLQENLKKTLDNVAIVEEEKMEAVPDVERKEDKPEGQSPVKAEWPSETPVLCQQCGGKPGVTFTSAKGEVFSVLEFAPSNHSFKKIEFQPPEAKKFFSTVRKEMALLATSLPEGIMVKTFEDRMDLFSALIKGPTRTPYEDGLYLFDIQLPNIYPAVPPHFCYLSQCSGRLNPNLYDNGKVCVSLLGTWIGKGTERWTSKSSLLQVLISIQGLILVNEPYYNEAGFDSDRGLQEGYENSRCYNEMALIRVVQSMTQLVRRPPEVFEQEIRQHFSTGGWRLVNRIESWLETHALLEKAQALPNGVPKASSSPEPPAVAELSDSGQQEPEDGGPAPGEASQGSDSEGGAQGLASASRDHTDQTSETAPDASVPPSVKPKKRRKSYRSFLPEKSGYPDIGFPLFPLSKGFIKSIRGVLTQFRAALLEAGMPECTEDK
B2: the binding entry with GFP-BAP1 Δ671–710 [1] is “no binding (only in the nuclear extract)”; in test [2] it was “binds”; in test [3], “binds”; in test [6], “binds”; with GFP-BAP1 Δ671–710 [4], “binds”; in test [5] it was “binds”.
